According to doi:10.1101/2022.11.09.515817:
These are yes or no findings as the source states them, for the method shown. Binding seen in cells or lysates may run through a third protein. Some binding calls cover weakened binding; strength is not graded here. For some assays here: Where a sequence is shown, tags or fusion partners need not be part of it. Each block holds one binder with its values, some of them ahead of it.

Amino acid sequences for entries named in this document (tags omitted).
UniProt Q8CFN5: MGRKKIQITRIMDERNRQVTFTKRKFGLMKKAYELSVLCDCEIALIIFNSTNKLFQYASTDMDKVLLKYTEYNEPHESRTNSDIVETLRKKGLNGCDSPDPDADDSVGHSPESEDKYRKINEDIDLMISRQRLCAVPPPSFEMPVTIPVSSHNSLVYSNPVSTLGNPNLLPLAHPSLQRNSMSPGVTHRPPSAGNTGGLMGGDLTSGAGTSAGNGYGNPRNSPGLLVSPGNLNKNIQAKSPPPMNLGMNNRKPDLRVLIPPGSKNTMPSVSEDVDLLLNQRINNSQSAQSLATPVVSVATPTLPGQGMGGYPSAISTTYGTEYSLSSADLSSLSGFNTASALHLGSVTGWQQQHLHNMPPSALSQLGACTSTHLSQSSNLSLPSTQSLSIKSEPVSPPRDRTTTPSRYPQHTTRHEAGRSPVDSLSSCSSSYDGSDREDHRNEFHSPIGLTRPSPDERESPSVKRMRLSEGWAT

Columns and labels:
[1] = target: Mef2c (mouse (endogenous in MLO-Y4)) (UniProt Q8CFN5); assay: co-IP
Flag-Mef2c = Flag-Mef2c (UniProt Q8CFN5); assay: co-IP

binding [1]: binds
B1: vinculin (protein, UniProt Q64727 1-1066)
chain: MPVFHTRTIESILEPVAQQISHLVIMHEEGEVDGKAIPDLTAPVAAVQAAVSNLVRVGKETVQTTEDQILKRDMPPAFIKVENACTKLVQAAQMLQSDPYSVPARDYLIDGSRGILSGTSDLLLTFDEAEVRKIIRVCKGILEYLTVAEVVETMEDLVTYTKNLGPGMTKMAKMIDERQQELTHQEHRVMLVNSMNTVKELLPVLISAMKIFVTTKNSKNQGIEEALKNRNFTVEKMSAEINEIIRVLQLTSWDEDAWASKDTEAMKRALASIDSKLNQAKGWLRDPNASPGDAGEQAIRQILDEAGKVGELCAGKERREILGTCKMLGQMTDQVADLRARGQGASPVAMQKAQQVSQGLDVLTAKVENAARKLEAMTNSKQSIAKKIDAAQNWLADPNGGPEGEEQIRGALAEARKIAELCDDPKERDDILRSLGEIAALTSKLGDLRRQGKGDSPEARALAKQVATALQNLQTKTNRAVANSRPAKAAVHLEGKIEQAQRWIDNPTVDDRGVGQAAIRGLVAEGHRLANVMMGPYRQDLLAKCDRVDQLTAQLADLAARGEGESPQARALASQLQDSLKDLKAQMQEAMTQEVSDVFSDTTTPIKLLAVAATAPPDAPNREEVFDERAANFENHSGRLGATAEKAAAVGTANKSTVEGIQASVKTARELTPQVISAARILLRNPGNQAAYEHFETMKNQWIDNVEKMTGLVDEAIDTKSLLDASEEAIKKDLDKCKVAMANIQPQMLVAGATSIARRANRILLVAKREVENSEDPKFREAVKAASDELSKTISPMVMDAKAVAGNISDPGLQKSFLDSGYRILGAVAKVREAFQPQEPDFPPPPPDLEQLRLTDELAPPKPPLPEGEVPPPRPPPPEEKDEEFPEQKAGEVINQPMMMAARQLHDEARKWSSKGNDIIAAAKRMALLMAEMSRLVRGGSGTKRALIQCAKDIAKASDEVTRLAKEVAKQCTDKRIRTNLLQVCERIPTISTQLKILSTVKATMLGRTNISDEESEQATEMLVHNAQNLMQSVKETVREAEAASIKIRTDAGFTLRWVRKTPWYQ

binding (Flag-Mef2c): binds
B2: HA-vinculin (protein, UniProt Q64727 1-1066)
chain: B1 chain
